Assay results as given in US20120213794A1.
Substitutions are numbered along the chain they refer to. No constants are given. Whether binding was seen depends on the method and setting. Some results given as binding are weak or reduced against the parent protein; the word gives no strength. One block for each binder: values may come before it.

Chains of the proteins cited; added tags and fusions are not shown. Lines headed by an entry give the natural chain unless they say otherwise; changes in a name come on top. Residues count along the entry.
UniProt Q8NBP7: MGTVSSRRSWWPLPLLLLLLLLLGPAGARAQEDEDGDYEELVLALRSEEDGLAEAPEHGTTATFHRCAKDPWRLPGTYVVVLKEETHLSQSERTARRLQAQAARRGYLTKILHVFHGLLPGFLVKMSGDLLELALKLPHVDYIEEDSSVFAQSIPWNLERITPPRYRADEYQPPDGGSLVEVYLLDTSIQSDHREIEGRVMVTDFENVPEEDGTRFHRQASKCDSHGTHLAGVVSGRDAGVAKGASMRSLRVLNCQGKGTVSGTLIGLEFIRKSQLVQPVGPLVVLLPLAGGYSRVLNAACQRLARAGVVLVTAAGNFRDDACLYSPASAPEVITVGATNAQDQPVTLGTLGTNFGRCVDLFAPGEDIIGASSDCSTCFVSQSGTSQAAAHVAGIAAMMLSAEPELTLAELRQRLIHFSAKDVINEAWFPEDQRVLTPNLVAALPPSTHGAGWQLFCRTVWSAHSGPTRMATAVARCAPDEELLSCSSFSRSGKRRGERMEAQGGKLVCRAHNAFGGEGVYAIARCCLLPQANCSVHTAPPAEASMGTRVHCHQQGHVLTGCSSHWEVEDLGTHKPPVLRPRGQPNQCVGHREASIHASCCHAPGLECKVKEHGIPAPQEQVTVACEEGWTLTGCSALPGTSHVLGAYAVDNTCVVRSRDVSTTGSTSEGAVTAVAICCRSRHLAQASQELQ
UniProt Q80W65, residues 35-694: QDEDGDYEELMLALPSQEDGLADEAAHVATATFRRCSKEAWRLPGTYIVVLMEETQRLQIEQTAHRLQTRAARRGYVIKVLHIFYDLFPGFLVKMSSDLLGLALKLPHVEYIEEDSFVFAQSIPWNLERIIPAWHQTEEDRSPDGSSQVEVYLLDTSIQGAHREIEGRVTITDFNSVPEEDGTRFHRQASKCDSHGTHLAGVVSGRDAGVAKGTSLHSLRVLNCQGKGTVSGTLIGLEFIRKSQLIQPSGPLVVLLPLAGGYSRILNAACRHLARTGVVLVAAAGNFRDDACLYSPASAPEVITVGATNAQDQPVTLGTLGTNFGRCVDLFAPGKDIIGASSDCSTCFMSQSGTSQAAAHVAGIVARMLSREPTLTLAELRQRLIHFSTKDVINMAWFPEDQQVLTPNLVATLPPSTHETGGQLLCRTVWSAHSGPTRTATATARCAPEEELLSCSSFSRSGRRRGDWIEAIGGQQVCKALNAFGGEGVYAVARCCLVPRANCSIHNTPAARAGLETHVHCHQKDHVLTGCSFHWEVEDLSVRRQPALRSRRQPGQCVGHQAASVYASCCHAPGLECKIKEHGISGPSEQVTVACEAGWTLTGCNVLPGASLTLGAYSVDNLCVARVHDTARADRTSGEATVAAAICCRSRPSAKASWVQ

Columns and labels:
[1] = target: human PCSK9 (proprotein convertase subtilisin-kexin type 9), wild type (human) (UniProt Q8NBP7); experiment: Biacore; Fab pre-incubated with human PCSK9, injected over LDLR and EGF_AB
[2] = target: human PCSK9 (human) (UniProt Q8NBP7); experiment: Biacore epitope binning on immobilized human PCSK9
[3] = target: human PCSK9 (proprotein convertase subtilisin-kexin type 9), wild type (human) (UniProt Q8NBP7); experiment: inferred by the filing from the cellular LDL-uptake assay
[4] = target: human PCSK9 (proprotein convertase subtilisin-kexin type 9), wild type (human) (UniProt Q8NBP7); experiment: hydrogen-deuterium exchange MS; PCSK9 bound to an antibody affinity column
[5] = target: murine PCSK9 (mouse) (UniProt Q80W65); experiment: inferred by the filing from the cellular LDL-uptake assay

B1: AX114 Fab (Fab, V domains shown)
VH: EVQLLESGGGLVQPGGSLRLSCKASGYTFSSYGMYWVRQAPGKGLEWIGWIDPGSGGTKYNEKFKGKATISRDNSKNTLYLQMNSLRAEDTAVYYCARERYGYYFDYWGQGTLVTVSS
VL: EIVLTQSPATLSLSPGERATITCRASQYVGTYLNWYQQKPGQAPRLLIYDASNRATGIPARFSGSGSGTDFTLTISSLEPEDFAVYYCQVWDSSPPVAFGGGTKVEIK
binding [1]: binds

B3: AX114 (antibody, V domains shown)
VH: B1 VH
VL: B1 VL
binding [2]: binds

B4: AX139 (antibody, V domains shown)
VH: B1 VH
VL: B1 VL with T31S, S52A, A98V
binding [2]: binds

B6: AX210 (antibody, V domains shown)
VH: QVQLLESGGGLVQPGGSLRLSCKASGYTFSSYSIYWVRQAPGKGLEWIGWIDPGNGGTRYNQKFQSKATISRDNSKNTLYLQMNSLRAEDTAVYYCARARVGYSLDYWGQGTLVTVSS
VL: B1 VL with T31S, A98V
binding [2]: binds

B8: AX137 (antibody, V domains shown)
VH: B1 VH
VL: B1 VL with V29I, T31S, V90A, A98V
binding [2]: binds

B10: AX132 IgG2 (antibody)
heavy: EVQLLESGGGLVQPGGSLRLSCKASGYTFSSYGMYWVRQAPGKGLEWIGWIDPGSGGTKYNEKFKGKATISRDNSKNTLYLQMNSLRAEDTAVYYCARERYGYYFDYWGQGTLVTVSSASTKGPSVFPLAPCSRSTSESTAALGCLVKDYFPEPVTVSWNSGALTSGVHTFPAVLQSSGLYSLSSVVTVPSSNFGTQTYTCNVDHKPSNTKVDKTVERKCCVECPPCPAPPVAGPSVFLFPPKPKDTLMISRTPEVTCVVVDVSHEDPEVQFNWYVDGVEVHNAKTKPREEQFNSTFRVVSVLTVVHQDWLNGKEYKCKVSNKGLPAPIEKTISKTKGQPREPQVYTLPPSREEMTKNQVSLTCLVKGFYPSDIAVEWESNGQPENNYKTTPPMLDSDGSFFLYSKLTVDKSRWQQGNVFSCSVMHEALHNHYTQKSLSLSPGK
VL: B1 VL with T31S, A98V
binding [5]: binds

Next, values leading:

binding [2]: binds
B2: AX213 (antibody, V domains shown)
VH: B1 VH with S31R, M34I, Y35N, W50R, S55N, K59R, E99A, R100N, Y101D, Y104S
VL: B1 VL with T31S, A98V

binding [2]: binds
B5: AX211 (antibody, V domains shown)
VH: B6 VH with S31R, Y32Q, S33G, I34F, Y35T, Q62E, Q65K, S66G, A99Y
VL: B1 VL with T31S, A98V

binding [2]: binds
B7: AX212 (antibody, V domains shown)
VH: B6 VH with I34F, Y35S, W50Y, N55S, R59K, S66G, A99Q
VL: B1 VL with T31S, A98V

binding [3]: binds | binding [4]: binds
B9: AX213 IgG2 (antibody)
heavy: B10 heavy with S31R, M34I, Y35N, W50R, S55N, K59R, E99A, R100N, Y101D, Y104S
light: EIVLTQSPATLSLSPGERATITCRASQYVGSYLNWYQQKPGQAPRLLIYDASNRATGIPARFSGSGSGTDFTLTISSLEPEDFAVYYCQVWDSSPPVVFGGGTKVEIKRTVAAPSVFIFPPSDEQLKSGTASVVCLLNNFYPREAKVQWKVDNALQSGNSQESVTEQDSKDSTYSLSSTLTLSKADYEKHKVYACEVTHQGLSSPVTKSFNRGEC
